# Tested on: MCF-7 cells
# Assay: MTS cell viability assay, breast cancer cells
# Assay type: cell-based
# Conditions: Homo sapiens, MCF7, 24 h exposure
# Experimental: Cell lines (CCD18 Co, HepG2 and MCF-7) were maintained in ATCC-formulated Eagle’s Minimum Essential Medium and HT29 was maintained in McCoy’s 5a Modified Medium supplemented with 10% fotal bovine serum (Atlas; Fort Collins, CO, USA), 10 mM HEPES solution, 100 mM L-glutamine penicillin streptomycin solution, 3 g/L glucose, and 1.5 g/L of sodium bicarbonate. Cells were maintained at 37°C with 5% CO2 in Corning 75 cm^2 culture flasks. Cells were exposed to a given isolate or known anticancer agent for 24 h. Following the appropriate treatments, cell viability was evaluated using an MTS assay according to the manufacturer’s instructions. All assays were performed at least three times and were monitored spectrophotometrically at 590 nm. Cell viability was recorded as percentage relative to vehicle solvent-treated control.
structure (smiles),measurement,value
"CC/C(=C(\c1ccccc1)c1ccc(OCCN(C)C)cc1)c1ccccc1 [Tamoxifen, tamoxifen, reference compound]",IC50,17.28 ± 0.06 µM

# Source: article PMC3541164, “Cytotoxic and potent CYP1 inhibitors from the marine algae Cymopolia barbata” (Organic and Medicinal Chemistry Letters, 2012)
